Reference: patent US20030175712A1 (published 2003)
No constants are given. Whether binding was seen depends on the method and setting. For part of these data: Binding seen in cells or lysates may run through a third protein. Some results given as binding are weak or reduced against the parent protein; the word gives no strength. For part of these data: Tags and fused reporters may be left off the sequences shown. Blank lines part the entries; values can stand above or below the molecule they belong to.

Protein sequences, listed by entry. Tags and fused reporters are not part of them. Lines headed by an entry give the natural chain unless they say otherwise; changes in a name come on top.
UniProt P18852: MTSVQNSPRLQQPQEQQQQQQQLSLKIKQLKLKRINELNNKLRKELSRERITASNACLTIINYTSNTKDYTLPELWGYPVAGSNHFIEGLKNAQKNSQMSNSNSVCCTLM

Key:
MBP-Far1 H7 = target: T1, MBP-Far1 H7 (S. cerevisiae, UniProt P21268 1-755); assay: in vitro binding of MBP-Far1 fusions to Gβ purified from yeast
T1 sequence (looked up): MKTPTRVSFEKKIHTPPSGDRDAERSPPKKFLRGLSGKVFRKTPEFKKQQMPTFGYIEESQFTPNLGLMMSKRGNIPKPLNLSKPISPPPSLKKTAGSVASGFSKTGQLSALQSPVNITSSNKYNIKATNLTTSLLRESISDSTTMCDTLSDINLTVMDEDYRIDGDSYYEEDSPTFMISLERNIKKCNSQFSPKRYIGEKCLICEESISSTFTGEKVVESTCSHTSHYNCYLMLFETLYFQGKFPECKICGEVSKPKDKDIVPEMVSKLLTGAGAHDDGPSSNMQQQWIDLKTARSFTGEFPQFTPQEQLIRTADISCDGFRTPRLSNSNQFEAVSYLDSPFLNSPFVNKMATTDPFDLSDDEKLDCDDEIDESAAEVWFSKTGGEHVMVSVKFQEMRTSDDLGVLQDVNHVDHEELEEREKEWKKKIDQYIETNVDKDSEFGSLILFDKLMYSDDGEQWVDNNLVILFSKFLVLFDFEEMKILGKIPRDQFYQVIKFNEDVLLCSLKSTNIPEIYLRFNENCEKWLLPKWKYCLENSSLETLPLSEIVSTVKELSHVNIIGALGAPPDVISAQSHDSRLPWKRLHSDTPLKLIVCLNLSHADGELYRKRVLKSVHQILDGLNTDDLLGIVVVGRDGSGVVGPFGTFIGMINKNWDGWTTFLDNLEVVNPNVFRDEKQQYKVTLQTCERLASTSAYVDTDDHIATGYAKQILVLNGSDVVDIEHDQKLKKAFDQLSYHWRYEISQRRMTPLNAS

[1] = target: T2, GSTCdc24p (1-472 aa) (S. cerevisiae) (UniProt P11433); assay: GSH-agarose pull-down from mixed bacterial extracts, immunoblot
T2 sequence (looked up): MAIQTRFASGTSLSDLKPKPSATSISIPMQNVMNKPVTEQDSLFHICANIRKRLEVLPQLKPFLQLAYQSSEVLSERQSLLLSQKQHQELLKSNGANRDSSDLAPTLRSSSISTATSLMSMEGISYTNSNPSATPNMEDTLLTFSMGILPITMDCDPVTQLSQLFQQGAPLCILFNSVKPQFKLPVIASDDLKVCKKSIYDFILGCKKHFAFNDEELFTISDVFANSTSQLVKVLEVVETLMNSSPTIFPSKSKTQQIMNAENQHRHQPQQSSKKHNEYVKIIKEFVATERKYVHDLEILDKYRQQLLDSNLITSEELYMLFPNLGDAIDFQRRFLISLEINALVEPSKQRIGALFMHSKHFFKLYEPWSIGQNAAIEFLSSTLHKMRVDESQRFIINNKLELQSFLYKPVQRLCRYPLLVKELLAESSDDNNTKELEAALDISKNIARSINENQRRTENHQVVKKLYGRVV

[2] = target: T3, His6Ste4p (S. cerevisiae) (UniProt P18851); assay: as above
T3 sequence: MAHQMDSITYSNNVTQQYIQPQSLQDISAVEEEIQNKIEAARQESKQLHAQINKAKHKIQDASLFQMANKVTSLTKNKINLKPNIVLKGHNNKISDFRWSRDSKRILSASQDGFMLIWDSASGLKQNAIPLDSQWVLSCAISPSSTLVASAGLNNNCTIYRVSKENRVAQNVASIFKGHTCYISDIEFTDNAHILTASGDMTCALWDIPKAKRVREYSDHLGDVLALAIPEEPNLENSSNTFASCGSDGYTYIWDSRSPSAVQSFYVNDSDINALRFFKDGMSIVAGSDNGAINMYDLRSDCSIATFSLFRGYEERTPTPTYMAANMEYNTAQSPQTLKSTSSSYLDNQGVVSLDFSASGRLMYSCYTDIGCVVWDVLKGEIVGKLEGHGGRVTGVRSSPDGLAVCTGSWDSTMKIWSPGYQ

[3] = target: T4, Ste4p, GAL4 two-hybrid fusion (S. cerevisiae) (UniProt P18851); assay: yeast two-hybrid
T4 sequence: T3 sequence

[4] = target: T5, Cdc24p, two-hybrid construct (limits not stated) (S. cerevisiae) (UniProt P11433); assay: yeast two-hybrid
T5 sequence (looked up): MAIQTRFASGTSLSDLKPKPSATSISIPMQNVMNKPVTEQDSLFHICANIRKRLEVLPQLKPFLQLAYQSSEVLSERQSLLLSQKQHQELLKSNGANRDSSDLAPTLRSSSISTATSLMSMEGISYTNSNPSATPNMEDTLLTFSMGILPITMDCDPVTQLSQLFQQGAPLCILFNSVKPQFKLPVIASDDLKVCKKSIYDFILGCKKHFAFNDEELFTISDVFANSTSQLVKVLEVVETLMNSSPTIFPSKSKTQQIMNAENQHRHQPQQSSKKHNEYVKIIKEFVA

[5] = target: T5, Cdc24p, two-hybrid construct (limits not stated) (S. cerevisiae); assay: yeast two-hybrid in the absence of Gβ
[6] = target: T6, 3×myc tagged Cdc24 (S. cerevisiae) (UniProt P11433); assay: co-precipitation on IgG-Sepharose from yeast extracts
T6 sequence (looked up): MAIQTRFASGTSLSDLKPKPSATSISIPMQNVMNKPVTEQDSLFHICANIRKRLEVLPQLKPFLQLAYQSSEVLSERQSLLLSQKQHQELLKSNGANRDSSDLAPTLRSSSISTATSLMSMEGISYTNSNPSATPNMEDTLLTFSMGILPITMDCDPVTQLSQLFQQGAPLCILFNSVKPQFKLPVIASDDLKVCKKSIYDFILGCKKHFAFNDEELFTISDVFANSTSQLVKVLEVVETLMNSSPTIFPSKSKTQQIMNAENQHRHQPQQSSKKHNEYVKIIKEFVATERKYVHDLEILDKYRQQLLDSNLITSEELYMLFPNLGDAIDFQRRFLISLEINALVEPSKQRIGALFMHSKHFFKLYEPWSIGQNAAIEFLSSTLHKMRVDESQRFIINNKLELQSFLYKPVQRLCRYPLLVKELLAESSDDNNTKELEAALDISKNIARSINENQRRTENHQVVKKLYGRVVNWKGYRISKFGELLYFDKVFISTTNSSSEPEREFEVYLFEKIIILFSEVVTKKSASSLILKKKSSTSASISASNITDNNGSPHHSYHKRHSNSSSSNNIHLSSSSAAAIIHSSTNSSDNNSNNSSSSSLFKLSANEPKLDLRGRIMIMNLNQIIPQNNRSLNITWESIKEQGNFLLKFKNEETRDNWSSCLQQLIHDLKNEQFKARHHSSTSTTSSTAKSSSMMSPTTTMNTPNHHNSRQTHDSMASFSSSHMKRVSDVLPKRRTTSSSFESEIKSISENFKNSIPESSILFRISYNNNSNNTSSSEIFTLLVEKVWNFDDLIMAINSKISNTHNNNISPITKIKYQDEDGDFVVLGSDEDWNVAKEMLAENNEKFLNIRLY

[7] = target: Gβγ purified from yeast (HA-tagged Gβ) (S. cerevisiae) (UniProt P18852); assay: in vitro binding of MBP-Far1 to Gβ purified from yeast

Molecule: Gβγ purified from yeast (HA-tagged Gβ) (from UniProt P18852 1-107)
binding (MBP-Far1 H7): binds

B1: His6Ste4p (other)
chain: T3 sequence
notes: Expressed in E. coli; migrates as a doublet due to proteolysis; also called Hexahistidine-tagged Ste4p; pTrcSte4; not shown: hexahistidine tag with the leader of the pTrc vector
binding [1]: binds

B2: GSTCdc24p (1-472 aa) (other, S. cerevisiae, UniProt P11433 1-472, looked up)
chain: T2 sequence (looked up)
notes: range 1-472; Expressed in E. coli; also called GSTCdc24 fusion; GST Cdc24 fusion (residues 1-472); not shown: glutathione-S-transferase as encoded by pGEX-2T (Pharmacia)
binding [2]: binds

B4: Far1, two-hybrid construct (protein, S. cerevisiae, UniProt P21268 1-830, looked up, not shown: large carriers)
chain: MKTPTRVSFEKKIHTPPSGDRDAERSPPKKFLRGLSGKVFRKTPEFKKQQMPTFGYIEESQFTPNLGLMMSKRGNIPKPLNLSKPISPPPSLKKTAGSVASGFSKTGQLSALQSPVNITSSNKYNIKATNLTTSLLRESISDSTTMCDTLSDINLTVMDEDYRIDGDSYYEEDSPTFMISLERNIKKCNSQFSPKRYIGEKCLICEESISSTFTGEKVVESTCSHTSHYNCYLMLFETLYFQGKFPECKICGEVSKPKDKDIVPEMVSKLLTGAGAHDDGPSSNMQQQWIDLKTARSFTGEFPQFTPQEQLIRTADISCDGFRTPRLSNSNQFEAVSYLDSPFLNSPFVNKMATTDPFDLSDDEKLDCDDEIDESAAEVWFSKTGGEHVMVSVKFQEMRTSDDLGVLQDVNHVDHEELEEREKEWKKKIDQYIETNVDKDSEFGSLILFDKLMYSDDGEQWVDNNLVILFSKFLVLFDFEEMKILGKIPRDQFYQVIKFNEDVLLCSLKSTNIPEIYLRFNENCEKWLLPKWKYCLENSSLETLPLSEIVSTVKELSHVNIIGALGAPPDVISAQSHDSRLPWKRLHSDTPLKLIVCLNLSHADGELYRKRVLKSVHQILDGLNTDDLLGIVVVGRDGSGVVGPFGTFIGMINKNWDGWTTFLDNLEVVNPNVFRDEKQQYKVTLQTCERLASTSAYVDTDDHIATGYAKQILVLNGSDVVDIEHDQKLKKAFDQLSYHWRYEISQRRMTPLNASIKQFLEELHTKRYLDVTLRLPQATFEQVYLGDMAAGEQKTRLIMDEHPHSSLIEIEYFDLVKQQRIHQTLEVPNL
binding [3]: binds
binding [4]: binds
binding [5]: binds

The next lines start with the values.

binding [3]: binds
B3: full length Cdc24p, GAL4 two-hybrid fusion (protein, not shown: small tags and cut ends)
chain: T6 sequence (looked up)

binding [6]: binds
B5: Far1 protein A fusion (other, S. cerevisiae, UniProt P21268 1-830, looked up)
chain: B4 chain
notes: Isolated from yeast extracts on IgG-Sepharose; not shown: protein A moiety

binding [7]: binds
B6: MBP-Far1 (protein, S. cerevisiae, UniProt P21268 1-830, looked up, not shown: large carriers)
chain: B4 chain
